We go through 42 sequences from PMC7819943, “Rice protein-binding microarrays: a tool to detect cis-acting elements near promoter regions in rice”.

The chains behind the UniProt entries cited, without tags or fusion partners.
UniProt Q0JBA9, entry or part of it: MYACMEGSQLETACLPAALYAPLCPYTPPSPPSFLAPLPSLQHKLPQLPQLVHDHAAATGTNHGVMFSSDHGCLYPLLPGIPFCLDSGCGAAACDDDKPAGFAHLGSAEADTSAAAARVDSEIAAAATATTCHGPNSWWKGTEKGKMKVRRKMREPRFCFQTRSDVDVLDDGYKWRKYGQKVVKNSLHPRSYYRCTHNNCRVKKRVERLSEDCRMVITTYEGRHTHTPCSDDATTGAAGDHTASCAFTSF

This is one part of the list.

In the test the target is OsWRKY34 (Oryza sativa, UniProt Q0JBA9 1-250). Nature of the test: protein-binding microarray (RPBM); PBS, 2% BSA, 51.3 ng/ul salmon testes DNA, 50 uM zinc acetate, 200 nM TF, 25 C, 1 h; high values mean tight binding. The note with it: protein: recombinant; tags: N-terminal polyhistidine and DsRed monomer fusion (pET32a); label: CyDye5-dUTP incorporated in the synthesized complementary strand; 3' TTTTT single-stranded linker to array surface; dsDNA, one strand shown. A digest of the protocol:
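Binding signal is defined as the fluorescence intensity of each feature in arbitrary units, read on an Axon 4000B scanner. Transcription factors with N-terminal polyhistidine and DsRed fusions came from E. coli BL21-CodonPlus and were purified on Ni–NTA. They were incubated at 200 nM for 1 h at 25 °C on a custom Agilent array that had been made double-stranded with Cy5-dUTP, with 50 µM zinc acetate present, and the array was washed.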
For “CCACTGCATACCAACACCAACCACTGTACTAGCACTACTACGGAGTCACCTAGTGCAG”, the binding signal is 8980 fluorescence intensity (a.u.).
With “TTGTTGATTTTTTTTCAGAATTTTTATCACTATTTGTCTTCGGAGTCACCTAGTGCAG”, the binding signal is 8570 fluorescence intensity (a.u.).
As for “ATTCTGCTATAGCCCTTTGTTTCAATCTGTTATTCTTGTGCGGAGTCACCTAGTGCAG”, the binding signal was 8300 fluorescence intensity (a.u.).
The value for “GCTAAGTGAAGGCTTATTGTTGCTGATGGTCAGGCTTGTTCGGAGTCACCTAGTGCAG” was 8720 fluorescence intensity (a.u.); that for “GATGAGTCGCTCCAGCCACATGTGAACCCGGCCGGCCGGCCGGAGTCACCTAGTGCAG” was 9980 fluorescence intensity (a.u.); that for “TCAACATTTTGCTTGTTTTTTTTAGTCTGGTCCCATCTGTCGGAGTCACCTAGTGCAG” was 10000 fluorescence intensity (a.u.).
With “TCCGCGCTATTCTCCGTCCTGACGACTAGCCACCGTCTTCCGGAGTCACCTAGTGCAG” the figure was 9390 fluorescence intensity (a.u.); with “GTTTTATGACACTTCTAGTTATATATTTTCTATTTTTTTACGGAGTCACCTAGTGCAG”, 9540 fluorescence intensity (a.u.); with “TTCTGGTTCTAGTTCATTTTCTGGATTCTACAACTACATACGGAGTCACCTAGTGCAG”, 9620 fluorescence intensity (a.u.).
As for “TTTTAATAGCATCATATCCGTCCGTTCTATCCTACGCATACGGAGTCACCTAGTGCAG”, the binding signal was 12600 fluorescence intensity (a.u.).
Regarding “GCCCATATTGATGTATTCATTACCAGAAACTGTGTATCGGCGGAGTCACCTAGTGCAG”, the binding signal is 8750 fluorescence intensity (a.u.).
The value for “ACTGGAAAATTTGGTCCACCTGTCTCGTCAACAGATTTCACGGAGTCACCTAGTGCAG” was 8770 fluorescence intensity (a.u.); that for “AACTTTGATTATATCATGTTTATTTCCAGTGGTTGTGTTACGGAGTCACCTAGTGCAG” was 10200 fluorescence intensity (a.u.).
“CTAGAATATCAGCTGTTGATGGTACCTTTTTTATTTCAATCGGAGTCACCTAGTGCAG”: the binding signal is 11300 fluorescence intensity (a.u.).
The value for “GATAATAAGCCAAATCTCACCGACATGTATCACCCAAAATCGGAGTCACCTAGTGCAG” was 8280 fluorescence intensity (a.u.).
Regarding “TTACCTTAGATTTGGTAGGGCTGGTTAGGGCTGGTTGGAGCGGAGTCACCTAGTGCAG”, the binding signal was 8680 fluorescence intensity (a.u.).
On to “CCCTGATTATTTTTTTTTCCCAAATCCAAAAAGGCTAGATCGGAGTCACCTAGTGCAG”, for which the binding signal was 8410 fluorescence intensity (a.u.).
The value for “CTTCGCCTCATTCATATCCCTGTACTTCCGATGACACGTCCGGAGTCACCTAGTGCAG” was 12200 fluorescence intensity (a.u.).
Consider “CCTGATCCTCCTGCCACCGCGGCCGCAGCAGCAGCAGCAGCGGAGTCACCTAGTGCAG”, for which the binding signal was 8300 fluorescence intensity (a.u.).
Regarding “ACATATTATTGTGTATTATTGTGTAGTATTCCTTCCGTTGCGGAGTCACCTAGTGCAG”, the binding signal is 8380 fluorescence intensity (a.u.).
With “GCCGCCTCTTCCTTTTTTTCACCAGCGGCGGCGTCCGAATCGGAGTCACCTAGTGCAG” the figure was 8650 fluorescence intensity (a.u.); with “TATAGATTTTTAGAGTTATATCACAGTCTCATCAGCTCTTCGGAGTCACCTAGTGCAG”, 8610 fluorescence intensity (a.u.).
As to “TAAACCACTGCCACTATTGTGCATTTCATTTGATTTAACACGGAGTCACCTAGTGCAG”, the binding signal is 9040 fluorescence intensity (a.u.).
As for “ATAATAGGGTTATTCATAATATGGCAGGGTTTTTGGTTAGCGGAGTCACCTAGTGCAG”, the binding signal is 10300 fluorescence intensity (a.u.).
The value for “TTAAAACTCTCGAATTGACTCGCCGCCATTGTTGCTCCTCCGGAGTCACCTAGTGCAG” was 8570 fluorescence intensity (a.u.); that for “GGACCCACTCCGTTTCATAGTTTTTGACTTCTTTTACTGGCGGAGTCACCTAGTGCAG” was 8270 fluorescence intensity (a.u.).
With “GCTGTTCCCGTCGCTGGGCGTCGGCCACCTGAACCCCATGCGGAGTCACCTAGTGCAG” the figure was 8420 fluorescence intensity (a.u.); with “ATGTATGGCTGTAAGGGTATTTTTGGTATTTTTTTAAAAACGGAGTCACCTAGTGCAG”, 8750 fluorescence intensity (a.u.).
On to “TCTTTGCCATTTCGTTTACAGATAGCACTCATTATTATCTCGGAGTCACCTAGTGCAG”, for which the binding signal was 8200 fluorescence intensity (a.u.).
With “GGACGTTGTGGGAGAGGATTTCGTTTTTTTGTGGGTCCTCCGGAGTCACCTAGTGCAG” the figure was 11300 fluorescence intensity (a.u.); with “TGCCACTGTTCTATCTTCGTCGTCAAGCTCCATGACCGCCCGGAGTCACCTAGTGCAG”, 8060 fluorescence intensity (a.u.).
With “CGCCCGGCCGCCTACCCTCCCGGATACGTCGGAGGGGAGGCGGAGTCACCTAGTGCAG” the figure was 9480 fluorescence intensity (a.u.).
The value for “CTCTCTCTCTCACTAGCTAATTAGCTGCTACTACATCTTCCGGAGTCACCTAGTGCAG” was 8960 fluorescence intensity (a.u.).
Consider “CGACGCCATCCACAACACCTGAGCTGAGGCCGCCGCCGCGCGGAGTCACCTAGTGCAG”, for which the binding signal was 8460 fluorescence intensity (a.u.).
Consider “CGAGGAGGAAGCGGAGGGTGGGGAGCGGGTGGGAGTGGCCCGGAGTCACCTAGTGCAG”, for which the binding signal is 10600 fluorescence intensity (a.u.).
The value for “ACTTGCACACGGTAATTGACCAAACTCGCTCTATATATATCGGAGTCACCTAGTGCAG” was 10400 fluorescence intensity (a.u.); that for “ACCACTCCAAACTCCACTCGCTGAACTAGCTCTCACATCTCGGAGTCACCTAGTGCAG” was 9670 fluorescence intensity (a.u.).
Consider “CGATCATCCATGTTACACTGAAGTTTGAACCTGACGAGACCGGAGTCACCTAGTGCAG”, for which the binding signal is 8630 fluorescence intensity (a.u.).
With “TGGTGACTTTGTCAATCTTCAGGATTTACCGGCTCAGTCTCGGAGTCACCTAGTGCAG” the figure was 8400 fluorescence intensity (a.u.); with “TGCCGGAGCTCGCCTGCTCCACCGTCCACCCGCGCCGTCCCGGAGTCACCTAGTGCAG”, 8130 fluorescence intensity (a.u.); with “AAGATAAGTTACTCGTGTTCTTTGCAATTCTCTCGTTTAACGGAGTCACCTAGTGCAG”, 8510 fluorescence intensity (a.u.).
Consider “TCCTTTGACCAAATCCGAAACTACCAATGTCATGTTCACCCGGAGTCACCTAGTGCAG”, for which the binding signal was 9340 fluorescence intensity (a.u.).
